Three compounds from PMC6471591, “Preparation of Sesquiterpene Lactone Derivatives: Cytotoxic Activity and Selectivity of Action” (Molecules, 2019) can be followed below.

This data set concerns human solid tumor cell lines (A549, HBL-100, HeLa, SW1573, T-47D, WiDr). Kind of data set: Antiproliferative SRB assay, whole panel of tumor cell lines. It counts as cell-based. The note with it: tumor cell lines versus mouse splenocytes. The protocol: In vitro antiproliferative activity was evaluated using the protocol of the National Cancer Institute (NCI) after 48 h of drug exposure using the sulforhodamine B (SRB) assay. […] We cannot discard that increasing lipophilicity may well result in an increase in cytotoxicity in vitro.
The following human solid tumor cell lines were used in this study: HBL-100 (breast), HeLa (cervix), SW1573 (non-small cell lung), T-47D (breast), A549 (lung), and WiDr (colon). Cells were maintained in 25 cm^2 culture flasks in RPMI 1640 supplemented with 5% heat-inactivated fetal calf serum and 2 mM L-glutamine in a 37 °C, 5% CO2, 95% humidified air incubator. Exponentially growing cells were trypsinized and resuspended in antibiotic containing medium (100 units penicillin G and 0.1 mg of streptomycin per mL). Single-cell suspensions displaying >97% viability by trypan blue dye exclusion test were subsequently counted. After counting, dilutions were made to give the appropriate cell densities for inoculation onto 96-well microtiter plates. Cells were inoculated in a volume of 100 μL per well at densities of 20,000 (WiDr), 15,000 (T-47D and A549), and 10,000 (HeLa, SW1573, and HBL-100) cells per well, based on their doubling times.
Chemosensitivity tests were performed using the SRB assay of the NCI with slight modifications. Briefly, pure compounds were initially dissolved in DMSO at 400 times the desired final maximum test concentration. Control cells were exposed to an equivalent concentration of DMSO (0.25% v/v, negative control). Each agent was tested in triplicate at different dilutions in the range 1–100 μM. Drug treatment started on day 1 after plating. […] Optical density (OD) of each well was measured at 492 nm, using BioTek’s PowerWave XS Absorbance Microplate Reader (Highland Park, Winooski, VT, USA). […] The percentage growth (PG) was calculated with respect to untreated control cells (C) at each level of drug concentrations based on the difference in OD at the start time (T0) and at the end of drug exposure (T), according to NCI formulas. […]
A general note: Sulforhodamine B stains cellular protein and so reports cell mass.
Consider `C=C1C(=O)OC2CC(C)C3CC(OCc4cn(Cc5ccccc5)nn4)C(O)C3(C)CC12` (stereo not drawn) [Compound 10], for which the “selectivity of action against tumor cell lines in words” value is “low selectivity”.
The value for `C=C1C(=O)O[C@@H]2C[C@@H](C)[C@@H]3C=CC(=O)[C@@]3(C)[C@@H](O)[C@H]12` [Compound 2, helenalin] was “low selectivity”.
To `C=C1C(=O)O[C@@H]2[C@H]1CC[C@H](C)[C@@]1(O)C=CC(=O)[C@@]21C` [Compound 3, hymenin] belongs “low selectivity”.
